Data as given in PubChem BioAssay AID1224827 (NIAID, 2016).

Screen: 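Retest primary hits on a TNF reporter with six siRNAs per gene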 (follow-up of hits)
System: RAW264.7 G9 mouse macrophage reporter clone
Reagents: single siRNA against mouse genes, 100 nM siRNA
Time to read-out: siRNA for 2 days, then LPS about 16 h
Challenge: bacterial lipopolysaccharide (LPS), 10 ng/ml, cells fixed after overnight (about 16 h) stimulation
Measurement: 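Imaged nuclear TNF reporter intensity, background removed, scaled per plate and to non-targeting control wells, as z-scores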
Scale: TNF reporter z-score, mean: higher = stronger Tnf promoter reporter signal; gene median z, three same-vendor siRNAs: higher = stronger Tnf reporter signal for the gene
Hit rule: 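Active siRNA: replicate-mean z-score of 2 or more, or -2 or less; no calls for control wells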
In all, the deposit lists about 3,800 reagents; below is an unselected part. Of all reagents, about 2,200 (57%) are marked active. 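Active means a strong reporter change in either direction; calls are per siRNA, not per gene; qiagen siRNAs gave weaker effects.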 Entries without a mark were called inactive. The numbers tell different reagents against one gene apart. Not all columns of the deposit are shown. Reagent sequences are not shown.

Atp1a3 (GeneID 232975) #1
- TNF reporter z-score, mean: -2.74 (active)
- gene median z, three same-vendor siRNAs: -3.07

Atp1a3 (GeneID 232975) #2
- TNF reporter z-score, mean: -3.5 (active)
- gene median z, three same-vendor siRNAs: -3.07

Atp1a3 (GeneID 232975) #3
- TNF reporter z-score, mean: -4.34 (active)
- gene median z, three same-vendor siRNAs: -3.07

Atp1a3 (GeneID 232975) #4
- TNF reporter z-score, mean: -0.897
- gene median z, three same-vendor siRNAs: -1.58

Atp1a3 (GeneID 232975) #5
- TNF reporter z-score, mean: -1.65
- gene median z, three same-vendor siRNAs: -1.58

Atp1a3 (GeneID 232975) #6
- TNF reporter z-score, mean: -1.3
- gene median z, three same-vendor siRNAs: -1.58

Pakap (GeneID 677884) #1
- TNF reporter z-score, mean: -0.323
- gene median z, three same-vendor siRNAs: -0.623

Pakap (GeneID 677884) #2
- TNF reporter z-score, mean: -0.759
- gene median z, three same-vendor siRNAs: -0.623

Pakap (GeneID 677884) #3
- TNF reporter z-score, mean: -1.13
- gene median z, three same-vendor siRNAs: -0.623

Pakap (GeneID 677884) #4
- TNF reporter z-score, mean: 0.197
- gene median z, three same-vendor siRNAs: -2.34

Pakap (GeneID 677884) #5
- TNF reporter z-score, mean: -2.68 (active)
- gene median z, three same-vendor siRNAs: -2.34

Pakap (GeneID 677884) #6
- TNF reporter z-score, mean: -3.27 (active)
- gene median z, three same-vendor siRNAs: -2.34

Gatm (GeneID 67092) #1
- TNF reporter z-score, mean: 5.55 (active)
- gene median z, three same-vendor siRNAs: 2.54

Gatm (GeneID 67092) #2
- TNF reporter z-score, mean: 4.6 (active)
- gene median z, three same-vendor siRNAs: 2.54

Gatm (GeneID 67092) #3
- TNF reporter z-score, mean: -4.54 (active)
- gene median z, three same-vendor siRNAs: 2.54

Gatm (GeneID 67092) #4
- TNF reporter z-score, mean: 1.11
- gene median z, three same-vendor siRNAs: 0.0566

Gatm (GeneID 67092) #5
- TNF reporter z-score, mean: 0.838
- gene median z, three same-vendor siRNAs: 0.0566

Gatm (GeneID 67092) #6
- TNF reporter z-score, mean: -0.32
- gene median z, three same-vendor siRNAs: 0.0566

Individual results from the entries so far:
For “gene median z, three same-vendor siRNAs”, Pakap (GeneID 677884) #3 shows -0.623
For “gene median z, three same-vendor siRNAs”, Pakap (GeneID 677884) #1 is entered as -0.623

Additional entries follow.
Il17re (GeneID 57890) #1
- TNF reporter z-score, mean: 1.12
- gene median z, three same-vendor siRNAs: -1.63

Il17re (GeneID 57890) #2
- TNF reporter z-score, mean: -1.35
- gene median z, three same-vendor siRNAs: -1.63

Il17re (GeneID 57890) #3
- TNF reporter z-score, mean: -4.1 (active)
- gene median z, three same-vendor siRNAs: -1.63

Il17re (GeneID 57890) #4
- TNF reporter z-score, mean: 1.85
- gene median z, three same-vendor siRNAs: -0.155

Il17re (GeneID 57890) #5
- TNF reporter z-score, mean: 0.377
- gene median z, three same-vendor siRNAs: -0.155

Il17re (GeneID 57890) #6
- TNF reporter z-score, mean: -3.5 (active)
- gene median z, three same-vendor siRNAs: -0.155

Rab8a (GeneID 17274) #1
- TNF reporter z-score, mean: -0.983
- gene median z, three same-vendor siRNAs: -2.69

Rab8a (GeneID 17274) #2
- TNF reporter z-score, mean: -2.5 (active)
- gene median z, three same-vendor siRNAs: -2.69

Rab8a (GeneID 17274) #3
- TNF reporter z-score, mean: -3.25 (active)
- gene median z, three same-vendor siRNAs: -2.69

Rab8a (GeneID 17274) #4
- TNF reporter z-score, mean: -0.122
- gene median z, three same-vendor siRNAs: -0.514

Rab8a (GeneID 17274) #5
- TNF reporter z-score, mean: -0.0837
- gene median z, three same-vendor siRNAs: -0.514

Rab8a (GeneID 17274) #6
- TNF reporter z-score, mean: -1.04
- gene median z, three same-vendor siRNAs: -0.514

Fam91a1 (GeneID 210998) #1
- TNF reporter z-score, mean: -0.664
- gene median z, three same-vendor siRNAs: -2.21

Fam91a1 (GeneID 210998) #2
- TNF reporter z-score, mean: -2.63 (active)
- gene median z, three same-vendor siRNAs: -2.21

Fam91a1 (GeneID 210998) #3
- TNF reporter z-score, mean: -2.57 (active)
- gene median z, three same-vendor siRNAs: -2.21

Fam91a1 (GeneID 210998) #4
- TNF reporter z-score, mean: 3.41 (active)
- gene median z, three same-vendor siRNAs: 0.83

Fam91a1 (GeneID 210998) #5
- TNF reporter z-score, mean: -0.501
- gene median z, three same-vendor siRNAs: 0.83

Fam91a1 (GeneID 210998) #6
- TNF reporter z-score, mean: 0.00416
- gene median z, three same-vendor siRNAs: 0.83
